From paper doi:10.1101/2025.01.05.631347
No constants are given. Whether binding was seen depends on the method and setting. Binding seen in cells or lysates may run through a third protein. Some entries that bind do so weakly or less than the wild type.

The chains behind the UniProt entries cited, without tags or fusion partners.
UniProt P22561: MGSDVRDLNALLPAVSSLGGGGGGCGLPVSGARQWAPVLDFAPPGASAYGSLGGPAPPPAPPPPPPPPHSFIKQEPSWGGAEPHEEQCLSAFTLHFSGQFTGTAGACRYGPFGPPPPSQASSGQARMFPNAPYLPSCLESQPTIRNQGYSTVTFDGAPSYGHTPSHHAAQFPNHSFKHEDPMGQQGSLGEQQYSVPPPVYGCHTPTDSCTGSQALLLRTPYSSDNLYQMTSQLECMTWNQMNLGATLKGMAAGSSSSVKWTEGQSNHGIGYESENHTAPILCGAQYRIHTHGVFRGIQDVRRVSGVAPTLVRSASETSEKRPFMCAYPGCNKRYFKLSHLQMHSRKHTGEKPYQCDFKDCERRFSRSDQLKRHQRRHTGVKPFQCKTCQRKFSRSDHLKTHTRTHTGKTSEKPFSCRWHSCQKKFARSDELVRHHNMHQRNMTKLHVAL
UniProt Q8CJG0: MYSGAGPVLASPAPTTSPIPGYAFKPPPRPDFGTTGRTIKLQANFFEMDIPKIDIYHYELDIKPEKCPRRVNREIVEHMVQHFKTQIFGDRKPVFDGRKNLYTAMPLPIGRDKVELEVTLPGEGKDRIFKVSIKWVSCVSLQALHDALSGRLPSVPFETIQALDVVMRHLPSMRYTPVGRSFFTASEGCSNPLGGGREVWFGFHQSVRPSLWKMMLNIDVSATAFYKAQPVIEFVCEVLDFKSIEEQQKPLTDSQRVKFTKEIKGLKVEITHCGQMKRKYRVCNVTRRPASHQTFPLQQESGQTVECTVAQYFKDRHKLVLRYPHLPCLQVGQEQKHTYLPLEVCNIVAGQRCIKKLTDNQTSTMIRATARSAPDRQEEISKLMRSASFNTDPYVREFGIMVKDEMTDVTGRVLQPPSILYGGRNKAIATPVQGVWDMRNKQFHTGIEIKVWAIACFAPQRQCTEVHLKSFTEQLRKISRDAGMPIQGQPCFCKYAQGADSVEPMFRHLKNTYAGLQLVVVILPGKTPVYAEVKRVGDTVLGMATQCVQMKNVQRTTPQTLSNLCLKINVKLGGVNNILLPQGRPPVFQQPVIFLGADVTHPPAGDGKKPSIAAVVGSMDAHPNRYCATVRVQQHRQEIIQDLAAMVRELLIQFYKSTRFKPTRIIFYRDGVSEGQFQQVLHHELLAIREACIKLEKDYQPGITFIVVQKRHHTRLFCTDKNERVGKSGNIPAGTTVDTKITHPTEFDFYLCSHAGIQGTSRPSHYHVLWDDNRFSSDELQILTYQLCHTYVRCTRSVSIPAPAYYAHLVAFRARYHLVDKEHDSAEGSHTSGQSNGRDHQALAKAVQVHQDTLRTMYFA

Target: Wilms Tumour 1 (WT1) protein (mouse (endogenous in M15)) (UniProt P22561)
Assay: co-IP

AGO2 (from UniProt Q8CJG0 1-860)
binding: binds
